Values from PubChem BioAssay AID1159597 (NIAID, 2016).
The whole screen tested 756 reagents; this is an unselected part. 140 of all reagents (19%) were called active. 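Calls mark clear shifts in either direction, lowered or raised; calls are per siRNA, gene-level medians over six siRNAs not deposited.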 Entries without a mark were called inactive. Reagents against one gene are numbered here. No sequences are given here. Not given: the amount of reagent.

Assay: 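Role of canonical TLR signalling genes in the human macrophage LPS response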
Cells: human THP-1 B5 reporter clone (monocytic leukaemia line), PMA-differentiated to macrophage-like cells
Reagent: single siRNA against human genes
Duration: LPS for 4 h before read-out; assayed 48 to 72 h after siRNA transfection
Conditions: LPS (Salmonella minnesota R595) for 4 h; concentration not given
Detection: 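TNF promoter dual luciferase ratio after 4 h LPS, given as a per-plate robust z-score, mean of replicates per siRNA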
Reading the numbers: TNF reporter z-score: higher = stronger TNF promoter activity after LPS
Active means: In these data the active calls have TNF reporter z-score, replicate mean at about -1.5 or lower, or at about 1.53 or higher
Calls: active = clear shift in reporter, either direction; inactive = little shift in reporter

target	reagent	TNF reporter z-score, replicate mean
TAB2 (TGF-beta activated kinase 1 (MAP3K7) binding protein 2)	1	-0.956
TAB2 (TGF-beta activated kinase 1 (MAP3K7) binding protein 2)	2	-1.04
TAB2 (TGF-beta activated kinase 1 (MAP3K7) binding protein 2)	3	-1.24
TAB2 (TGF-beta activated kinase 1 (MAP3K7) binding protein 2)	4	-1.57 (active)
TAB2 (TGF-beta activated kinase 1 (MAP3K7) binding protein 2)	5	-2.23 (active)
TAB2 (TGF-beta activated kinase 1 (MAP3K7) binding protein 2)	6	-1.03
MAPK1 (mitogen-activated protein kinase 1)	1	-0.282
MAPK1 (mitogen-activated protein kinase 1)	2	-0.167
MAPK1 (mitogen-activated protein kinase 1)	3	0.503
MAPK1 (mitogen-activated protein kinase 1)	4	1.04
MAPK1 (mitogen-activated protein kinase 1)	5	-0.802
MAPK1 (mitogen-activated protein kinase 1)	6	-0.204
MYD88 (MYD88 innate immune signal transduction adaptor)	1	-5.08 (active)
MYD88 (MYD88 innate immune signal transduction adaptor)	2	-1.66 (active)
MYD88 (MYD88 innate immune signal transduction adaptor)	3	-2.93 (active)
MYD88 (MYD88 innate immune signal transduction adaptor)	4	-2.24 (active)
MYD88 (MYD88 innate immune signal transduction adaptor)	5	0.564
MYD88 (MYD88 innate immune signal transduction adaptor)	6	-1.07
TLR1 (toll like receptor 1)	1	-0.076
TLR1 (toll like receptor 1)	2	-0.173
TLR1 (toll like receptor 1)	3	0.72
TLR1 (toll like receptor 1)	4	0.957
TLR1 (toll like receptor 1)	5	-0.108
TLR1 (toll like receptor 1)	6	-0.18
AKT3 (AKT serine/threonine kinase 3)	1	-0.111
AKT3 (AKT serine/threonine kinase 3)	2	-1.62 (active)
AKT3 (AKT serine/threonine kinase 3)	3	0.443
AKT3 (AKT serine/threonine kinase 3)	4	0.523
AKT3 (AKT serine/threonine kinase 3)	5	-0.668
AKT3 (AKT serine/threonine kinase 3)	6	0.537
FOS (Fos proto-oncogene, AP-1 transcription factor subunit)	1	0.251
FOS (Fos proto-oncogene, AP-1 transcription factor subunit)	2	-0.259
FOS (Fos proto-oncogene, AP-1 transcription factor subunit)	3	1.22
FOS (Fos proto-oncogene, AP-1 transcription factor subunit)	4	-0.22
FOS (Fos proto-oncogene, AP-1 transcription factor subunit)	5	1.07
FOS (Fos proto-oncogene, AP-1 transcription factor subunit)	6	2.21 (active)
TAB1 (TGF-beta activated kinase 1 (MAP3K7) binding protein 1)	1	-0.789
TAB1 (TGF-beta activated kinase 1 (MAP3K7) binding protein 1)	2	-1.07
TAB1 (TGF-beta activated kinase 1 (MAP3K7) binding protein 1)	3	-0.0413
TAB1 (TGF-beta activated kinase 1 (MAP3K7) binding protein 1)	4	-1.04
TAB1 (TGF-beta activated kinase 1 (MAP3K7) binding protein 1)	5	-0.361
TAB1 (TGF-beta activated kinase 1 (MAP3K7) binding protein 1)	6	-1.7 (active)
TLR2 (toll like receptor 2)	1	1.18
TLR2 (toll like receptor 2)	2	0.674
TLR2 (toll like receptor 2)	3	-0.621
TLR2 (toll like receptor 2)	4	0.151
TLR2 (toll like receptor 2)	5	-0.629
TLR2 (toll like receptor 2)	6	-0.437
PIK3R2 (phosphoinositide-3-kinase regulatory subunit 2)	1	-0.645
PIK3R2 (phosphoinositide-3-kinase regulatory subunit 2)	2	-1.32
PIK3R2 (phosphoinositide-3-kinase regulatory subunit 2)	3	0.223
PIK3R2 (phosphoinositide-3-kinase regulatory subunit 2)	4	-1.25
PIK3R2 (phosphoinositide-3-kinase regulatory subunit 2)	5	-0.309
PIK3R2 (phosphoinositide-3-kinase regulatory subunit 2)	6	-0.43
MAP3K14 (mitogen-activated protein kinase kinase kinase 14)	1	0.599
MAP3K14 (mitogen-activated protein kinase kinase kinase 14)	2	0.809
MAP3K14 (mitogen-activated protein kinase kinase kinase 14)	3	-2.59 (active)
MAP3K14 (mitogen-activated protein kinase kinase kinase 14)	4	-1.11
MAP3K14 (mitogen-activated protein kinase kinase kinase 14)	5	0.977
MAP3K14 (mitogen-activated protein kinase kinase kinase 14)	6	0.156
AKT2 (AKT serine/threonine kinase 2)	1	-2.53 (active)
AKT2 (AKT serine/threonine kinase 2)	2	-0.453
AKT2 (AKT serine/threonine kinase 2)	3	-1.27
AKT2 (AKT serine/threonine kinase 2)	4	-1.43
AKT2 (AKT serine/threonine kinase 2)	5	-0.143
AKT2 (AKT serine/threonine kinase 2)	6	1.61 (active)
CHUK	1	0.036
CHUK	2	-2.08 (active)
CHUK	3	0.0257
CHUK	4	-0.224
CHUK	5	-1.07
CHUK	6	0.441
PELI1 (pellino E3 ubiquitin protein ligase 1)	1	-0.361
PELI1 (pellino E3 ubiquitin protein ligase 1)	2	-0.544
PELI1 (pellino E3 ubiquitin protein ligase 1)	3	2 (active)
PELI1 (pellino E3 ubiquitin protein ligase 1)	4	-0.909
PELI1 (pellino E3 ubiquitin protein ligase 1)	5	-0.14
PELI1 (pellino E3 ubiquitin protein ligase 1)	6	-0.309
TLR3 (toll like receptor 3)	1	-0.384
TLR3 (toll like receptor 3)	2	-0.887
TLR3 (toll like receptor 3)	3	-0.701
TLR3 (toll like receptor 3)	4	-2.51 (active)
TLR3 (toll like receptor 3)	5	0.0496
TLR3 (toll like receptor 3)	6	0.171
CD180 (CD180 molecule)	1	-0.28
CD180 (CD180 molecule)	2	-0.393
CD180 (CD180 molecule)	3	-0.903
CD180 (CD180 molecule)	4	-0.957
CD180 (CD180 molecule)	5	0.767
CD180 (CD180 molecule)	6	0.315
PIK3R5 (phosphoinositide-3-kinase regulatory subunit 5)	1	-0.189
PIK3R5 (phosphoinositide-3-kinase regulatory subunit 5)	2	-0.544
PIK3R5 (phosphoinositide-3-kinase regulatory subunit 5)	3	0.052
PIK3R5 (phosphoinositide-3-kinase regulatory subunit 5)	4	-0.311
PIK3R5 (phosphoinositide-3-kinase regulatory subunit 5)	5	1.18
PIK3R5 (phosphoinositide-3-kinase regulatory subunit 5)	6	-2.15 (active)
MAP3K1 (mitogen-activated protein kinase kinase kinase 1)	1	-1.26
MAP3K1 (mitogen-activated protein kinase kinase kinase 1)	2	-1.14
MAP3K1 (mitogen-activated protein kinase kinase kinase 1)	3	-0.292
MAP3K1 (mitogen-activated protein kinase kinase kinase 1)	4	-1.46
MAP3K1 (mitogen-activated protein kinase kinase kinase 1)	5	-0.685
MAP3K1 (mitogen-activated protein kinase kinase kinase 1)	6	-0.193
TLR6 (toll like receptor 6)	1	-0.0987
TLR6 (toll like receptor 6)	2	1.33
TLR6 (toll like receptor 6)	3	-0.315
TLR6 (toll like receptor 6)	4	-0.579
TLR6 (toll like receptor 6)	5	-2.13 (active)
TLR6 (toll like receptor 6)	6	-1.6 (active)
IKBKE (inhibitor of nuclear factor kappa B kinase subunit epsilon)	1	0.721
IKBKE (inhibitor of nuclear factor kappa B kinase subunit epsilon)	2	-1.19
IKBKE (inhibitor of nuclear factor kappa B kinase subunit epsilon)	3	0.397
IKBKE (inhibitor of nuclear factor kappa B kinase subunit epsilon)	4	1.17
IKBKE (inhibitor of nuclear factor kappa B kinase subunit epsilon)	5	-2.63 (active)
IKBKE (inhibitor of nuclear factor kappa B kinase subunit epsilon)	6	-2.62 (active)

Laid out differently: 7 of the entries above
{"target":"TAB1 (TGF-beta activated kinase 1 (MAP3K7) binding protein 1)","reagent":1,"TNF reporter z-score, replicate mean":-0.789}
{"target":"TAB1 (TGF-beta activated kinase 1 (MAP3K7) binding protein 1)","reagent":2,"TNF reporter z-score, replicate mean":-1.07}
{"target":"TAB1 (TGF-beta activated kinase 1 (MAP3K7) binding protein 1)","reagent":3,"TNF reporter z-score, replicate mean":-0.0413}
{"target":"TAB1 (TGF-beta activated kinase 1 (MAP3K7) binding protein 1)","reagent":4,"TNF reporter z-score, replicate mean":-1.04}
{"target":"TAB1 (TGF-beta activated kinase 1 (MAP3K7) binding protein 1)","reagent":5,"TNF reporter z-score, replicate mean":-0.361}
{"target":"TAB1 (TGF-beta activated kinase 1 (MAP3K7) binding protein 1)","reagent":6,"TNF reporter z-score, replicate mean":"-1.7 (active)"}
{"target":"TLR2 (toll like receptor 2)","reagent":1,"TNF reporter z-score, replicate mean":1.18}
